# Hit rate of the full screen: of about 53,000 sequences, about 3,700 (7%) were called active.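 The calls were made as follows: active = gene knockdowns whose robust z-score for IL-1 alpha signal is at least 2 or at most -2, so actives lie on both sides; inactive = the rest.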 This is one part of the list.
# Assay: Components of the Cytosolic LPS Sensing Pathway: Gene Identification via Genome-wide siRNA Screen;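 also: robust z of the log signal after scaling to non-targeting control siRNA wells of the plate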
# Settings: RAW264.7 macrophages, IL-1a HTRF, actives lie on both sides, screened at 100 nM (by protocol), cells primed 5 h with Pam3CSK4 first
# Method in brief: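 IL-1a HTRF of supernatants after 24 hour LipidA transfection of Pam3CSK4-primed (5 hours) RAW264.7 cells, 48h post-siRNA transfection (100 nM). Scores: percent of plate negative-control median, then log-based robust z-score.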
row,Sequence,z-score
1,GGACAAAAACAAAUGUGAGTT against 4933417A18Rik,active: -2.43
2,CGGAUGAUGUAUUUAAAGATT against Ftcd,inactive: 0.366
3,GGUGAAGAAGGAGACAAAGTT against Tmem43,inactive: 0.347
4,GGUAAUUAAUUCAAAGCAGTT against St8sia4,inactive: -0.851
5,GGUGUUUCCGUUGUAAAAATT against Tuba1c,inactive: 0.594
6,GCAGAUGCUGGUUUAAACATT against Zfand5,inactive: -0.0514
7,GCCUAUGAACUUAAUGGCCTT against Zfp180,inactive: -0.486
8,CGGUUGACAGGUAUAUCGCTT against Gpr139,inactive: -0.323
9,GCGUGAAUCCAAAUACAGUTT against Tigd3,inactive: 0.412
10,GCACAACUCCUACAUGGUCTT against Mfsd9,inactive: 0.782
11,GGAAGUUUCCAGCAAGACATT against Spn,inactive: -1.2
12,GCGUGUUUGACCGACACGATT against Plekha3,inactive: -0.704
13,CUCUAUGGACUAUAGCUAATT against Tas2r109,inactive: -0.324
14,GCGGGAGACAGAAUACGGUTT against Igfbp3,inactive: 0.171
15,GCUAGUAACAGCAAGCUUCTT against Zfp85os,inactive: 0.856
16,GGAACUUCUACAGUCCUCCTT against Parp16,inactive: 0.193
17,GUUGUUUAUAGCUUAAGGATT against Olfr1450,inactive: -0.577
18,GGACUCGUUGGUCAUGUCUTT against Ulk4,inactive: 0.586
19,GGUUUGUUAGGCAUGAUAATT against Adamts16,inactive: -1.24
20,GGUGCUUACUGAUUUUUGUTT against Triap1,inactive: 0.669
21,AUGGUAUACUAUUAUGCUGTT against Mup20,inactive: 1.62
22,GCAGCUGUCAUGUAUACAGTT against Olfr59,inactive: -0.867

# Another view of part of the listing above:
row | Sequence | z-score
3 | GGUGAAGAAGGAGACAAAGTT against Tmem43 | inactive: 0.347
6 | GCAGAUGCUGGUUUAAACATT against Zfand5 | inactive: -0.0514
15 | GCUAGUAACAGCAAGCUUCTT against Zfp85os | inactive: 0.856
17 | GUUGUUUAUAGCUUAAGGATT against Olfr1450 | inactive: -0.577

# Remaining list, next part.

row,Sequence,z-score
1,GGUGGGUGACACUUAAACATT against Vmn1r73,inactive: 0.413
2,GGCUUCUAAUCAGAUCAGCTT against Tmem251,inactive: 0.334
3,CCCAGUGUCAUUCAGUAUUTT against Phactr3,active: 2.13
4,GGACAAAGAAGACUCCCGATT against Dpf2,inactive: -0.402
5,GGGCUAAAGUAUAUCCAUUTT against Mapk1,inactive: -1.35
6,CCUAAACAAGAUGACGACATT against Lonp2,inactive: 1.49
7,GGUUUGGCCUGGAGUGAAATT against Olfr126,inactive: 0.0536
8,GAUAUGUUCGACAACGGCATT against Foxd1,inactive: -0.39
9,CCUAUUCAUGCGUCUGUGGTT against Atp6v0c,inactive: -0.278
10,GCUAAUCCAAUCACUGAUGTT against Zgrf1,inactive: -1.82
11,GGAAAGACAUGUAAUAUGUTT against Sdhaf2,inactive: -0.51
12,GGCCUUGCACUUCAGUUUCTT against Mfsd4b1,inactive: -0.436
13,GGAAUGUCCACAUUUUGUATT against Tigd5,inactive: 1.19
14,GGUCGUUCAGAAGCACCAGTT against Aldh16a1,inactive: -1.31
15,GCCCAUUAAUGGGAUAUAATT against Ccdc134,inactive: 0.148
16,CCACUGACAUUUUUCAAACTT against Tagln3,inactive: -1.23
17,GGUGUUCGAGAAGCUGAAGTT against Haus7,inactive: -0.371
18,CCCGAUUCCCACUUAAAACTT against Pcdhga3,inactive: -0.132
19,GGAGAAAGAAGAGCUAUGATT against Pla2g12b,inactive: -1.78
20,GGAUUUCAACUAUUUGUUGTT against Spta1,inactive: -1.04
21,GGACAGCAGCGUGAACUAUTT against Alx1,inactive: 0.254
22,CCCUCACUAUAACACUAUUTT against Six5,inactive: -0.418

row,Sequence,z-score
1,CGAAGACACGCUACGAAGATT against Minpp1,inactive: -0.161
2,GGCCCUUAAGAGAACUCUUTT against Olfr1046,inactive: -1.77
3,GCUGAUAUGCACAAGAUGGTT against Gps1,inactive: -0.0845
4,GGUACAUUUUAAACAAUGCTT against Nptn,inactive: -0.247
5,CCUAUACAAGUAGGCAAUATT against Cipc,inactive: -0.811
6,GGAGUUUAGAAGGGAGGAATT against Slx4,inactive: 1.05
7,GAAAACCUACCAGUGGGUGTT against Adamtsl5,inactive: -0.784
8,GGAGCGUACCAUGAUCGAUTT against Parvb,active: -2.17
9,GCACUUCCCUCCCUAUGCATT against Cep20,active: -2.11
10,CGGGUAAUAUUCUUUUCAATT against Rex2,inactive: 1.76
11,CCAACAGGCAUAUGCAUAUTT against Ddx5,inactive: 0.364
12,CCUCCUGUGUUACUUGCGUTT against Clcf1,inactive: 0.57
13,GGCAAUUUCACACUAAUCATT against Mtmr14,inactive: -1.24
14,GGCAAAGUGUCCCUCCGAATT against Skint7,active: 2.06
15,GGAACCACUUAUUUAUUUCTT against Gba2,inactive: -0.00998
16,GGCCUCAGCUCACAACAAATT against Sf3b4,inactive: -1.71
17,GCGAUCGAUGUCGUACUCUTT against Smg1,inactive: 0.432
18,GCACGCAGACAAAAUGGGCTT against Wdr63,inactive: -0.341
19,GCUUGGCUAUCAAAACUUCTT against Ccdc22,inactive: -0.00442
20,GGAAGAAGCUAGAACAGGATT against Add2,inactive: -0.143
21,GCAAGCAACGGUCAUUCUCTT against Slc10a6,inactive: 0.862
22,GGCAUUAGAGACAGACUGGTT against Acer3,inactive: -0.456

row,Sequence,z-score
1,GGUAGUGACUGUGCUAUCGTT against Gpr35,inactive: -0.979
2,GGUGGCCGUGAAGAAGAUCTT against Mapk4,inactive: -0.902
3,GGUGGAACAGGCAGAAUUCTT against Syn2,inactive: 1.92
4,GCACUCCUGUCAUUCGUGUTT against Gnaq,inactive: -1.59
5,CCUCCUUAUCCAUAAUAUUTT against Slc35a3,inactive: 0.727
6,GGACUACUCGGAUUUAGCUTT against Lonp1,inactive: -0.318
7,GGACUCCUAUGUAGGUGAUTT against Actc1,inactive: -0.752
8,CCUCUGACCUAGUUUUUCUTT against Nav3,inactive: 1.02
9,GGCCAAAUAGCACUAAAGUTT against Ttll4,inactive: -0.0504
10,GCACGUCAGAAUCUCCAGATT against Pln,inactive: -0.669
11,GCUCCUGGUCUCAUUUACATT against Taf9b,inactive: -0.386
12,GGCUGCUAGCUUAUAUAAGTT against Med21,inactive: -0.472
13,GGGUACAGACGAUGUUUGATT against Unc45b,inactive: 0.347
14,GCCCUCUGUGAGUAGUAAUTT against Shroom3,inactive: 0.603
15,GGAUAGAUCCUUGAAAAAGTT against Tmprss7,inactive: 1.05
16,GGUUACCUGGGCAUGGGAATT against 4732465J04Rik,inactive: 0.341
17,GGUAUCAAGUAUGACCUAGTT against Lrrc8a,inactive: -1.2
18,GGACUCUUUCAUAAGCAUATT against Etv5,inactive: -0.415
19,GGUGUUGGGCUACAAGGAUTT against Dmtn,inactive: 0.404
20,CGCGUAACUCCUAUGUAGUTT against G6pd2,inactive: 0.759
21,GGGAUAGCUCUAGUAUAUUTT against Slc24a2,inactive: -0.749
22,GGAAAGGUUGUUAUUGAUGTT against Psmd14,inactive: -0.552

row,Sequence,z-score
1,ACCGUUUUUAAACCUCUGATT against Ociad2,inactive: -1.12
2,CGUCACUGAUGUGGCUUUUTT against Plpp6,inactive: 0.755
3,GGUCCAAGAGGAAAGACAATT against Adarb2,inactive: 0.67
4,CCUGGUCUAUAAGGUUUGUTT against Slc25a37,inactive: 1.13
5,CCUGGAUACCAAUGAUGAATT against Grk4,inactive: -0.137
6,GGAAGGGCAUCCACUUUGATT against Psd,inactive: -0.563
7,GGGAUAAGAGAGCAAUUAATT against Usp17la,inactive: -1.42
8,GGAAGAUUGAAAUAGGCGATT against Mecom,inactive: -1.25
9,CGAGCUAACAAACUUGAACTT against Foxn2,inactive: 0.144
10,CCCUGGAUGAAAAUGACAATT against Cdh24,inactive: 0.793
11,GGAAGAAUGUAAGUAUACCTT against Zscan12,inactive: 1.68
12,GGAUUUUUGUGAGUCUAAGTT against Sdr9c7,inactive: 0.257
13,GGCUGAGCUGCGCAACAAATT against Gas8,inactive: -0.00831
14,GGAGGAGGACUCAAUCUCATT against Hps5,inactive: 1.23
15,GGACAGAAAGGUACCCUUATT against Slc30a5,inactive: 0.461
16,CCAAUUGACGGUUUAUGUUTT against Scaper,inactive: -1.2
17,CCAAUGGUCAGGAGUGUAGTT against Prpsap2,inactive: -0.766
18,GUCUUCUCUGCCUGUCUGATT against Lce3c,inactive: -0.0986

# Reference: PubChem BioAssay AID1508600 (Functional Genomics Laboratory (NCATS/FGL), 2020)
